Source: patent US8470548B2, “Diagnosis of depression” (Intra-Cellular Therapies, Inc., priority 2006, dated 2013)

Tested on: p11 mRNA
Settings: mice, 14 day treatment, once daily i.p., killed 1 hour after last injection

CN1C(=O)CN=C(c2ccccc2)c2cc(Cl)ccc21 [diazepam]
p11 mRNA in the forebrain: not
